PubChem BioAssay AID1259308 | NCATS, 2017
Screen: 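Genes whose loss raises luciferase production in HEK293 cells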 (primary screen). Cell system: human HEK293 embryonic kidney cells stably expressing firefly luciferase (HEK-CMV-Luc2-Hygro). Reagents: single siRNA against human genes, 0.8 pmol siRNA per well. Timing: 72 h. Read-out: 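Reporter luminescence and viable-cell signal on separate replicate plates, given as percent of non-targeting control and median/MAD z-scores, plus per-cell luciferase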. Scale: total luciferase, z-score and total luciferase, % of control: higher = more reporter protein produced; luciferase per cell, z-score: higher = more reporter output per viable cell. Call rule: 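Active when the median/MAD z-score for overall luciferase is greater than 3; a gene was taken forward for validation with new siRNAs if at least two of its three siRNAs passed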. Calls: active = raised luciferase; inactive = no rise.
Here is an unselected part of about 59,000 reagents. Of all reagents, about 1,510 (2.6%) are marked active. 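Calls use total luciferase alone and ignore viability, so some active siRNAs may act by altering cell number.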 Entries without a mark were called inactive. The numbers tell different reagents against one gene apart. Further read-outs or replicates are left out here.

target	reagent	total luciferase, z-score	total luciferase, % of control	luciferase per cell, z-score
ZFAND2B	1	-2	42.1	-2.83
ZFAND2B	2	3.18 (active)	145	2.07
ZFAND2B	3	0.825	98.3	0.767
BSDC1	1	-0.129	79.3	-0.167
BSDC1	2	-1.63	49.5	0.0111
BSDC1	3	-0.659	68.8	-0.216
INIP	1	0.9	99.8	0.816
INIP	2	1.5	112	0.606
INIP	3	1.69	116	1.95
RSL24D1P11	1	-2.16	38.9	0.0846
RSL24D1P11	2	-1.54	51.3	-1.56
RSL24D1P11	3	-0.469	72.6	-0.829
FUCA2	1	0.386	89.6	0.198
FUCA2	2	-0.971	62.6	-1.23
FUCA2	3	-0.2	77.9	0.288
ZNF695	1	-2.27	36.8	-1.96
ZNF695	2	0.205	86	-0.416
ZNF695	3	0.132	84.5	-0.108
SMARCD2	1	0.274	87.3	0.241
SMARCD2	2	-0.286	76.2	-0.592
SMARCD2	3	-0.836	65.3	-1.18
SOWAHD	1	1.01	102	1.06
SOWAHD	2	-0.69	68.2	-0.498
SOWAHD	3	1.11	104	1.02
GTPBP8	1	1.55	113	1.19
GTPBP8	2	0.134	84.6	-0.215
GTPBP8	3	4.31 (active)	168	3.01
ZNF317	1	-1.96	42.8	-0.887
ZNF317	2	-0.0754	80.4	0.27
ZNF317	3	2.15	125	2.39
IGHMBP2	1	-1.17	58.6	-1.53
IGHMBP2	2	-1.69	48.3	-1.11
IGHMBP2	3	0.483	91.5	-0.392
CLGN	1	-0.246	77	-0.532
CLGN	2	0.711	96	0.464
CLGN	3	-0.89	64.2	0.0776
HOXA5	1	3.22 (active)	146	2.52
HOXA5	2	1.84	118	0.865
HOXA5	3	-1.4	54.1	-1.9
HUNK	1	0.129	84.5	0.047
HUNK	2	0.502	91.9	-0.289
HUNK	3	-0.923	63.5	-1.3
MAFK	1	-0.371	74.5	-0.517
MAFK	2	-0.128	79.3	-0.136
MAFK	3	2.22	126	1.2
ZNF28	1	-0.486	72.2	-0.503
ZNF28	2	0.0224	82.3	-0.485
ZNF28	3	0.202	85.9	0.546
TIMP3	1	-2.28	36.6	-2.77
TIMP3	2	-0.187	78.2	0.281
TIMP3	3	-1.06	60.8	-0.978
AURKA	1	-1.58	50.4	-0.847
AURKA	2	-0.736	67.2	0.0122
AURKA	3	-1.16	58.8	-0.112
DDX10	1	-0.813	65.7	-0.155
DDX10	2	-1.74	47.2	-1.87
DDX10	3	-1.2	58.1	-0.698
SUPT5H	1	-0.398	74	-0.649
SUPT5H	2	-1.92	43.8	-1.34
SUPT5H	3	-0.605	69.8	-0.109
ETV4	1	1.27	107	0.706
ETV4	2	0.308	88	-0.227
ETV4	3	1.09	104	0.972
CDK12	1	-1.08	60.5	0.0727
CDK12	2	-2.09	40.2	-1.84
CDK12	3	-1.51	51.8	-1.33
CLMN	1	1.71	116	2.5
CLMN	2	-0.242	77.1	-0.427
CLMN	3	-0.207	77.8	0.117
MEIOB	1	-0.0497	80.9	0.111
MEIOB	2	-1.11	59.9	-1.51
MEIOB	3	-0.462	72.7	-0.725
STARD10	1	0.101	83.9	0.292
STARD10	2	-1.51	51.8	-1.37
STARD10	3	0.309	88	2.24

Records listed so far whose gene name starts with T or t (3):
target	reagent	total luciferase, z-score	total luciferase, % of control	luciferase per cell, z-score
TIMP3	1	-2.28	36.6	-2.77
TIMP3	2	-0.187	78.2	0.281
TIMP3	3	-1.06	60.8	-0.978
